Publication PMC12687436
These are yes or no findings as the source states them, for the method shown. Binding seen in cells or lysates may run through a third protein. Some results given as binding are weak or reduced against the parent protein; the word gives no strength. Tags and fused reporters may be left off the sequences shown.

Amino acid sequences for entries named in this document (tags omitted).
UniProt P09493: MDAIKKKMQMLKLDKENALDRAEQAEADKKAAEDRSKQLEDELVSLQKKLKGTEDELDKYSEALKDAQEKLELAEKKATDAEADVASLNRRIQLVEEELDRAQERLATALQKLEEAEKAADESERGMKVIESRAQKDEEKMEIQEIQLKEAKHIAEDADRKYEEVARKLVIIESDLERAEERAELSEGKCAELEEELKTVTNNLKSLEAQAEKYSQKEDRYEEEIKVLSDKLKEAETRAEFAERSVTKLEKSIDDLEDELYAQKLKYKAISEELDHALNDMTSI

Biological target: T1, Tetraspanin 4 (TSPAN4), HA-tagged, overexpressed in VSMCs (UniProt O14817)
T1 sequence: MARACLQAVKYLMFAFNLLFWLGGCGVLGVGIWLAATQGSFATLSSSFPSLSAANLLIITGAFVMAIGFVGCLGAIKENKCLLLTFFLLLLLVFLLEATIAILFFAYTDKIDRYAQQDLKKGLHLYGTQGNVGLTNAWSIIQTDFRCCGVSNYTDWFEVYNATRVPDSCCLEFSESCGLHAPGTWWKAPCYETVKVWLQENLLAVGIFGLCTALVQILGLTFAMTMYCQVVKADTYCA
Assay: co-IP; HA-tag immunoprecipitation of TSPAN4 from lysates of VSMCs overexpressing TSPAN4, IgG as control; detection by western blot

- binding: binds
Substance: Tropomyosin-1 (TPM1) (from UniProt P09493 1-284)
